SMILES strings stand for the structures. Only a part is listed here, and it is no random draw. Records with an inconclusive call do not appear. Active and inactive are the calls of the source. Calls follow the shape of the dose curve; as a rule, active = well fitted activation curve with a large enough effect; inconclusive = small, poorly fitted or top-dose-only effect; inactive = no such curve, though single readings can be large or run the other way.
Potency is read from the fitted curve at half-maximal effect.

The nature of the assay: qHTS screen for small molecules that induce genotoxicity in human embryonic kidney (HEK293T) cells expressing luciferase-tagged ELG1. Also: nearly all actives have a fitted effect of over 60% in size. The note with it: HEK293T ELG1-luciferase reporter, luminescence, 16 h. The text has this: NIH Molecular Libraries Probe Production Network [MLPCN] NIH Chemical Genomics Center [NCGC] MLPCN Grant: 1 R03 MH092164-01 Assay Provider: Kyungjae Myung, NHGRI, NIH Keywords: MLPCN, qHTS, NCGC, genotoxicity, cancer Assay Overview: Cancer cells divide rapidly compared to normal cells in the body. During cell division, cancer cells need to duplicate their genome by DNA replication. The failure of genome duplication leads to cancer cells' death. Therefore, inhibitors of DNA replication could specifically kill cancer cells. Based on this concept, many chemotherapeutic agents were developed and have been used to treat cancer patients. However, there are a limited number of agents available in the clinical setting, and some of those that do exist have low efficacy and severe side effects. […] With this in mind, we developed a quantitative high-throughput ELG1-luciferase reporter gene assay. […]
Assay Protocol Summary: For genotoxicity screening, 2,000 cells in 5 uL/well were dispensed into white, solid-bottom 1536-well plates using a solenoid-based dispenser. […] 5 ul ONE-Glo (Promega) was then added to each plate and following a 30 min incubation at room temperature, luciferase activity was quantified on a ViewLux CCD-based plate reader.
For `Cc1cc(=O)oc2cc(OCc3ccccc3)ccc12`, the Potency was active: 14.6 µM.

Source of the values: PubChem BioAssay AID504466 (National Center for Advancing Translational Sciences (NCATS), 2011).
